Results from patent publication US12371507B2 (Beth Israel Deaconess Medical Center, priority 2018, dated 2025).

Test: general procedure: solution-phase peptide synthesis; HATU with triethylamine or diisopropylethylamine
Settings: for final HPLC purity: HPLC Protocol A at 45 °C
[1] = late stage modification step, TFA salt

Substance: 1-(tert-butoxycarbonyl)-2-methyl-L-prolyl-N-{(1S,2R)-4-{(2S)-2-[(1R,2R)-3-{[(1 S)-1-benzyl-2-methoxy-2-oxoethyl]amino}-1-methoxy-2-methyl-3-oxopropyl]pyrrolidin-1-yl}-2-methoxy-1-[(1 S)-1-inethylpropyl]4-oxobutyl}-N-methyl-Lvalinamide
- step yield (coupling step): 74%

Substance: 2-methyl-L-prolyl-N-[(3R,4S,5S)-1-{(2S)-2-[(1R,2R)-3-{[(1 S)-1-carboxy-2-phenylethyl]amino}-1-methoxy-2-methyl-3-oxopropyl]pyrrolidin-1-yl}-3-methoxy-5-methyl-1-oxoheptan-4-yl]-N-methyl-L-valinamide, trifluoroacetic acid salt
- final HPLC purity [1]: purity>98%
- step yield [1]: 89%

Substance: 2-methyl-L-prolyl-N-{(1 S,2R)-4-{(2S)-2-[(1R,2R)-3-{[(1 S)-1-benzyl-2-methoxy-2-oxoethyl]amino}-1-methoxy-2-methyl-3-oxopropyl]pyrrolidin-1-yl}-2-methoxy-1-[(1 S)-1-methylpropyl]-4-oxobutyl}-N-methyl-L-valinamide, trifluoroacetic acid salt
- final HPLC purity [1]: purity>91%
- step yield [1]: 89%

Substance: 2-methylalanyl-N-[(3R,4S,5S)-3-methoxy-1-{(2S)-2-[(1R,2R)-1-methoxy-2-methyl-3-oxo-3-{[(1S)-2-phenyl-1-(1,3-thiazol-2-yl)ethyl]amino}propyl]pyrrolidin-1-yl}-5-methyl-1-oxoheptan-4-yl]-N-methyl-L-valinamide
- step yield (late stage modification step): 75%

Substance: N-[(9H-fluoren-9-ylmethoxy)carbonyl]-2-methylalanyl-N-[(3R,4S,5S)-3-methoxy-1-{(2S)-2-[(1R,2R)-1-methoxy-2-methyl-3-oxo-3-{[(1S)-2-phenyl-1-(1,3-thiazol-2 yl)ethyl]amino}propyl]pyrrolidin-1-yl}-5-methyl-1-oxoheptan-4-yl]-N-methyl-L-valinamide
- step yield (coupling step): 74%
